In the supplement of paper PMC10849652:
The other results are listed elsewhere or left out.

The chains behind the UniProt entries cited, without tags or fusion partners. Where a name states a change or a piece, a line headed by the entry shows the natural chain unless it says otherwise.
UniProt Q9BVX2: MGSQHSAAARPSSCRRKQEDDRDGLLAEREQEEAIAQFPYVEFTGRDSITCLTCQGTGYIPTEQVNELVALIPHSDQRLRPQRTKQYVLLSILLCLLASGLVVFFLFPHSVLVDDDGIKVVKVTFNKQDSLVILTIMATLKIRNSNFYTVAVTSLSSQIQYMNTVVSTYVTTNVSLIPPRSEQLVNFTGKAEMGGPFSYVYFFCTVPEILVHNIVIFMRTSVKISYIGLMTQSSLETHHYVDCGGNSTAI
UniProt Q24JP5: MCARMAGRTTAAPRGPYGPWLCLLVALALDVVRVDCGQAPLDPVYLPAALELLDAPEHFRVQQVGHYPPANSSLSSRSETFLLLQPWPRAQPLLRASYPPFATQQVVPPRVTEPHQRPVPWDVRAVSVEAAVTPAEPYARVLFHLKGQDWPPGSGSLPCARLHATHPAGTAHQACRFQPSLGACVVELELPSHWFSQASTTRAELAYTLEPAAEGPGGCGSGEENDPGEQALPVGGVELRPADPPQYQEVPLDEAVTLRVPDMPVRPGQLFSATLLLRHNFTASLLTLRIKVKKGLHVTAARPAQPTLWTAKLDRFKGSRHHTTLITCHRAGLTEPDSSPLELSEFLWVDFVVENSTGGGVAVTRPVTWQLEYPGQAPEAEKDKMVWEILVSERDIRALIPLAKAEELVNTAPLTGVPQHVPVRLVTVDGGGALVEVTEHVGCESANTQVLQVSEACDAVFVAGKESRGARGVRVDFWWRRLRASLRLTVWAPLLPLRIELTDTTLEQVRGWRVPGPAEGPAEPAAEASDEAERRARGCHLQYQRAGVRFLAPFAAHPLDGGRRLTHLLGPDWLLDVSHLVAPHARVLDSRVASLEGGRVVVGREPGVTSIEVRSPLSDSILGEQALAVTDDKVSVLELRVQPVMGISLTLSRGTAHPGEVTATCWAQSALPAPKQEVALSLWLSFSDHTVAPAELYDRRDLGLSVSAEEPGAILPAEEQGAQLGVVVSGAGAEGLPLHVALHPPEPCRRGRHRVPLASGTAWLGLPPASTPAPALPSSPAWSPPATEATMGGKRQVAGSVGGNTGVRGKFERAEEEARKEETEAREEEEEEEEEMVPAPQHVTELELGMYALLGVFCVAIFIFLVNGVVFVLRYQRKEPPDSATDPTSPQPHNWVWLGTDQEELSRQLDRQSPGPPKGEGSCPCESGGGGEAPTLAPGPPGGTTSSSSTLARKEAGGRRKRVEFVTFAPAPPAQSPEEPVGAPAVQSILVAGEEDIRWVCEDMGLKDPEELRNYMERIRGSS
UniProt Q96CG3: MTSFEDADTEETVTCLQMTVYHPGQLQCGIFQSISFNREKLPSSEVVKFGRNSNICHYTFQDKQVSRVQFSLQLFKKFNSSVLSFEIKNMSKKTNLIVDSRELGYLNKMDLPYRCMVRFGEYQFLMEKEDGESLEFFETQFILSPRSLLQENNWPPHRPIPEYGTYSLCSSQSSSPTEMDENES
UniProt Q9Y519: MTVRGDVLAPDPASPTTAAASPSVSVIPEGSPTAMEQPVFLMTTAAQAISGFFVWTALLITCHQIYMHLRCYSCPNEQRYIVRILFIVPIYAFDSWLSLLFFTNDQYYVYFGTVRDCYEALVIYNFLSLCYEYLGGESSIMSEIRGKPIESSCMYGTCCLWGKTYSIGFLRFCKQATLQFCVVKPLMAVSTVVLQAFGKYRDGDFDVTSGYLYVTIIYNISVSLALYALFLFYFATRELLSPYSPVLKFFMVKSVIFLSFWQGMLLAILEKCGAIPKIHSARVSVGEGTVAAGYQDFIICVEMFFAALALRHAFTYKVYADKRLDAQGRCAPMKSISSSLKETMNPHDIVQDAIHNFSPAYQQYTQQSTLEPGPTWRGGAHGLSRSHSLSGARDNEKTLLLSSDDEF
UniProt Q9NVA4: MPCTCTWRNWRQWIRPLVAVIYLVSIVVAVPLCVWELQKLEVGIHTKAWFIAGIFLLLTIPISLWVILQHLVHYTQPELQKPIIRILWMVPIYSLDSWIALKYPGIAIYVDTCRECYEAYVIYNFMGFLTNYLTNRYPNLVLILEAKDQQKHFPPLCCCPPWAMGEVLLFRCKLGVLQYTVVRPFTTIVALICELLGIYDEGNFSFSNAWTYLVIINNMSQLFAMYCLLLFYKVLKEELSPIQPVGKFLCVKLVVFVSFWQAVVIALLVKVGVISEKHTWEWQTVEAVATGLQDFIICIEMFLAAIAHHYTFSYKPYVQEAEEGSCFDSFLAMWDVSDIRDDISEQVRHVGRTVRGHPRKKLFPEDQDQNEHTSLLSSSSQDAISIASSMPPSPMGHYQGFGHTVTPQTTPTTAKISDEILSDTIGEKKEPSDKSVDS
UniProt Q9H5L6: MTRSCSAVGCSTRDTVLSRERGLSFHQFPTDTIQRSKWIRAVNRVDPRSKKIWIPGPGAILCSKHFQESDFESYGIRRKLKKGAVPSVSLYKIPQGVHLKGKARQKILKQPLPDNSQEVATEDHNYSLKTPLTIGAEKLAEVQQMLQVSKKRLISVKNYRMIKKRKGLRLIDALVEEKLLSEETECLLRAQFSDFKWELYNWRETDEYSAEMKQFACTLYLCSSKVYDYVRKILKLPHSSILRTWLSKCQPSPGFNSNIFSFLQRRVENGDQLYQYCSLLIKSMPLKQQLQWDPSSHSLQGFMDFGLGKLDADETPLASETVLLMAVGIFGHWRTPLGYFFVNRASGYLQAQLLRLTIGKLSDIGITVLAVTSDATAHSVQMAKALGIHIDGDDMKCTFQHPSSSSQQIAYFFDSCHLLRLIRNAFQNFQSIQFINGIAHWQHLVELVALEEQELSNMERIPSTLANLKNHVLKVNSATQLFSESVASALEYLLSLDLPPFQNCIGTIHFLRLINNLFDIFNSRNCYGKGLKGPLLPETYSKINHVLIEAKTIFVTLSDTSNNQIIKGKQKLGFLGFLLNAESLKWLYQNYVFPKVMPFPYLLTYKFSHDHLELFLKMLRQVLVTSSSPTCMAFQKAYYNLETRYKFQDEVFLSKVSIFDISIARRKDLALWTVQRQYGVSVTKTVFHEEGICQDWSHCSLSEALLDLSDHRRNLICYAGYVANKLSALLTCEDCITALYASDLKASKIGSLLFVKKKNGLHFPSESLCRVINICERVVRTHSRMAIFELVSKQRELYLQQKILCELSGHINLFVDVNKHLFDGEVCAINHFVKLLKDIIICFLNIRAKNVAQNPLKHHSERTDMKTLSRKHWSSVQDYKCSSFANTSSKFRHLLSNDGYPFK
UniProt Q9BRN9: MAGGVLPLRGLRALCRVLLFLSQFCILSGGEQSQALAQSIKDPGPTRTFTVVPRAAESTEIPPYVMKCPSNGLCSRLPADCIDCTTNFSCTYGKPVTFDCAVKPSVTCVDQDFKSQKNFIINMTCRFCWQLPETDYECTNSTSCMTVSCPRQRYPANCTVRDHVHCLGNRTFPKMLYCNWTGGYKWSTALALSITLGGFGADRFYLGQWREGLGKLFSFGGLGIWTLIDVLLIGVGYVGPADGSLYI
UniProt Q7Z2Z1: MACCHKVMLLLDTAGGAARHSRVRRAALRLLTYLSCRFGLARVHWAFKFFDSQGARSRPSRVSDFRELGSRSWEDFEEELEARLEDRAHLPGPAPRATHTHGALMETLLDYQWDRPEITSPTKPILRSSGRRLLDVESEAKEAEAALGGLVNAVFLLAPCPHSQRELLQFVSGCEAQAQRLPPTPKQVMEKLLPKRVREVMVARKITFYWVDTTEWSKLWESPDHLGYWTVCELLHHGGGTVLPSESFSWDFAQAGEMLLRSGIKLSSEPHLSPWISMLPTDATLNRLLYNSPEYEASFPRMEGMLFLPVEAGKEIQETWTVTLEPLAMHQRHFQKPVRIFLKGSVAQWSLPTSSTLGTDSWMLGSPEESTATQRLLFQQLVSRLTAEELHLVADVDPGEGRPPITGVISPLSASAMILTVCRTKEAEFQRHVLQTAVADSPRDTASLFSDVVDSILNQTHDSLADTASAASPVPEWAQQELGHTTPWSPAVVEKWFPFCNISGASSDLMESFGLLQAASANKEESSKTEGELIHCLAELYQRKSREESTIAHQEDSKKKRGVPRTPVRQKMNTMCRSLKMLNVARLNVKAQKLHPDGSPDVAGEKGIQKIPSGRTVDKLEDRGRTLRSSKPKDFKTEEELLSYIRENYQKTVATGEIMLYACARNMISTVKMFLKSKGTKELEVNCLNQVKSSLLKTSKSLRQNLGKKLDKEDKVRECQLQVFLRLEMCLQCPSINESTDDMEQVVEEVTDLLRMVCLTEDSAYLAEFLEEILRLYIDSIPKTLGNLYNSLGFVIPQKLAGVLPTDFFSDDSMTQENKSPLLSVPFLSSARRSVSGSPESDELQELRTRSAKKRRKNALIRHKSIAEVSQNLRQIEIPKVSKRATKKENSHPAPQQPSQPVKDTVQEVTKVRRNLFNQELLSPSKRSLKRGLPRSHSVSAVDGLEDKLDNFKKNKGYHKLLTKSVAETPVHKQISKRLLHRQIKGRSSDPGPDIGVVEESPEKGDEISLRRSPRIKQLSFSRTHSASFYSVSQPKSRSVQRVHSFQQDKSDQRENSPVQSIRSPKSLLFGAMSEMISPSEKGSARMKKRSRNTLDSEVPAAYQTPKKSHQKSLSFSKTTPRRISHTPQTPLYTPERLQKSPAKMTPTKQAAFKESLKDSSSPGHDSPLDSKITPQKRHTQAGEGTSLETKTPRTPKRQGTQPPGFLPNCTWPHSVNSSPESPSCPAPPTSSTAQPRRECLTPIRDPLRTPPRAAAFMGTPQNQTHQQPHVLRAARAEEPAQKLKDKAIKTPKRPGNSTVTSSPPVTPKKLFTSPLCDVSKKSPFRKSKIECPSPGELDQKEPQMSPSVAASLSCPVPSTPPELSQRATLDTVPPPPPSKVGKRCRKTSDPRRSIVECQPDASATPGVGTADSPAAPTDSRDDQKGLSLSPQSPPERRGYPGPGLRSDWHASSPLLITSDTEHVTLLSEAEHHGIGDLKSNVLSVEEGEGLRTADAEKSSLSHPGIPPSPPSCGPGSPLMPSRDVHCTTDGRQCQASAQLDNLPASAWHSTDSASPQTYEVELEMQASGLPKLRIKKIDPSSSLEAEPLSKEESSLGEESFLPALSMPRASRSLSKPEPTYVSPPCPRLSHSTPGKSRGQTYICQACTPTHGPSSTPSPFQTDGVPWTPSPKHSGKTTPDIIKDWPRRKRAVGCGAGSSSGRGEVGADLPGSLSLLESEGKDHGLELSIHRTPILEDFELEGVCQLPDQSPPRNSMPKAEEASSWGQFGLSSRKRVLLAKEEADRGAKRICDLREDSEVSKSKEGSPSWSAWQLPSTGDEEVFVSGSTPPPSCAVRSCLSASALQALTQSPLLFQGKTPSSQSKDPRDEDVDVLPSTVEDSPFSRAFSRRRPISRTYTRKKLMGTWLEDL
UniProt Q8N9M5: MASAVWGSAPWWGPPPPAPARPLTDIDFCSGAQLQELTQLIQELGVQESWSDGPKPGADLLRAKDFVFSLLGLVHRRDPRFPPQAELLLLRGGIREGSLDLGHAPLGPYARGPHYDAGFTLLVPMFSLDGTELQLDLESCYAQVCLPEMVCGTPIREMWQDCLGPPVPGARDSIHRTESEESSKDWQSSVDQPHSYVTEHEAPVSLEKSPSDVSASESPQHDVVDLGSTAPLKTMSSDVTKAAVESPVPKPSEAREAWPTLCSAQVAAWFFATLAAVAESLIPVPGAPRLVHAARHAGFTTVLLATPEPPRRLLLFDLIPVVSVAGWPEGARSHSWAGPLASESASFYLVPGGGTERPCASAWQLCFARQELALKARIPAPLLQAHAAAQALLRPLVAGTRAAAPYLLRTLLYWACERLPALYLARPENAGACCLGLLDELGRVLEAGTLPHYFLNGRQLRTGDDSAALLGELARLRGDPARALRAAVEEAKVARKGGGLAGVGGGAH
UniProt Q96B96: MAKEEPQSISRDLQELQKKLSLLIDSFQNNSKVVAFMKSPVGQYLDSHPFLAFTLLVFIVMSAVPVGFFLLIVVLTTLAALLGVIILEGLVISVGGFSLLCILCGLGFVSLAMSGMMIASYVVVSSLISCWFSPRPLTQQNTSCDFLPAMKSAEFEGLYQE
UniProt P37173, whole entry, looked up: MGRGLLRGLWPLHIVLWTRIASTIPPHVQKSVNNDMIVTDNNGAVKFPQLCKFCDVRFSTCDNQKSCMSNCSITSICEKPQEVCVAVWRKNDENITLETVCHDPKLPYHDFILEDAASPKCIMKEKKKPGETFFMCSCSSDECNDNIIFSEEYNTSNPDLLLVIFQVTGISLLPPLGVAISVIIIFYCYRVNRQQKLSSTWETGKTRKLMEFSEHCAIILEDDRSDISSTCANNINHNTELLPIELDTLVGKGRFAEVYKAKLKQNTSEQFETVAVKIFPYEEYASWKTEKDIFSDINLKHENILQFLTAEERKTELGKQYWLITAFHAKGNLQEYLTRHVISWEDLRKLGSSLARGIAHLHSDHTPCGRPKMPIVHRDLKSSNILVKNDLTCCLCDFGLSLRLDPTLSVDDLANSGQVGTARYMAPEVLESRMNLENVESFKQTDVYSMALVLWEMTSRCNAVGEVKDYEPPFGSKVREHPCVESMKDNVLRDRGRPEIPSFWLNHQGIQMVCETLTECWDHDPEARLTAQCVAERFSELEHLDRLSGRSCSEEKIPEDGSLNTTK

Tests used:
Test in all cases: log2 fold change, soluble protein after heating vs DMSO (PISA); higher = thermal stabilisation; K562 lysate, 10 uM; active = over 0.2 and 3.5 SD of the protein, either way, in both replicates (recomputed)
[1] = compound: C#Cc1cccc(Nc2ncnc3cc(OCCOC)c(OCCOC)cc23)c1 [erlotinib]
Outline: (§1)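 Thermal stability, expressed as log-two fold change relative to solvent controls, is given from duplicates. Crude K562 extract in PBS pH 7.4 with 1 mM MgCl2, at 1 mg/mL protein, was treated with 10 μM compound for 30 min and heated in aliquots for 3 min across 48°C-58°C. After pooling, adjustment to 0.5% NP-40 at 4°C and centrifugation at 21,000xg for 90 min, supernatant protein was measured by TMTpro 16plex LC-MS/MS with channel sums equalised.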

[2] = compound: C1=CC(=CC=C1C2=NC3=C(N2)C=C(C=C3)C(=O)N)OC4=CC=C(C=C4)Cl
Outline: as §1

[3] = compound: C1=CC2=NC=CN=C2C=C1/C=C/3\C(=O)NC(=O)S3
Outline: as §1

[4] = compound: C1CCN(C1)C(=O)NC2=CC=CC(=C2)NC3=NC=C(C(=N3)NCCC4=CN=CN4)Br
Outline: as §1

[5] = compound: C1CN(CCC1(CC2=CC=C(C=C2)Cl)N)C3=NC=NC4=C3C=CN4
Outline: as §1

[6] = compound: C=CC(=O)N1CCC[C@@H](n2nc(-c3ccc(Oc4ccccc4)cc3)c3c(N)ncnc32)C1 [ibrutinib]
Outline: as §1

[7] = compound: CC(C)C1=C2N=C(C=C(N2N=C1)NCC3=CC=CC=C3)NCCCCCCN
Outline: as §1

[8] = compound: C1=CC=C(C=C1)C2=NC(=C(N2)C3=CC=NC=C3)C4=CC(=C(C=C4)Cl)O
Outline: as §1

[9] = compound: C1COCCN1CCN2C3=CC=CC=C3N=C2NC(=O)C4=CC(=CC=C4)[N+](=O)[O-] [IRAK-1-4 Inhibitor I]
Outline: as §1

[10] = compound: CC(=O)c1cnc2ccc(-c3cc(Cl)c(O)c(Cl)c3)nc2c1N[C@H]1CC[C@H](CN(C)C)CC1
Outline: as §1

[11] = compound: CC(C)(C)Cn1c(N)nc2ccc(-c3[nH]c(C(C)(C)C)nc3-c3ccc(F)cc3)nc21 [ralimetinib]
Outline: as §1

[12] = compound: CC(C)(O)CC(=O)NCCn1ccc2ncnc(Nc3ccc(Oc4cccc(C(F)(F)F)c4)c(Cl)c3)c21
Outline: as §1

[13] = compound: CC1=C(C(CC(=O)N1)C2=CC=C(C=C2)C(F)(F)F)C(=O)NC3=C(C=C4C(=C3)C=NN4)F
Outline: as §1

[14] = compound: CC1=C(C2=C(C=C1)C(=O)C3=CC=CC=C3N2CCCN)C
Outline: as §1

[15] = compound: CC1=C(C=C(C=C1)NC(=O)C2=CC(=CC=C2)C(C)(C)C#N)NC3=CC4=C(C=C3)N=CN(C4=O)C
Outline: as §1

[16] = compound: CC1=C(C=C(C=C1)NC(=O)C2=CC(=CC=C2)N(C)C)NC(=O)C3=CC=C(C=C3)O
Outline: as §1

[17] = compound: CC1=CC=C(C=C1)SC2=C3C=C(SC3=CN=C2)C(=O)N
Outline: as §1

[18] = compound: C/C(=N\NC(=O)C1=CC(=CC=C1)S(=O)(=O)N2CCOCC2)/C3=C(C=CC(=C3)Cl)O
Outline: as §1

[19] = compound: C1=CC2=C(C=CC(=C2)/C=C\3/C(=O)NC(=NCC4=CC=CS4)S3)N=C1
Outline: as §1

[20] = compound: C1=CC=C2C(=C1)C3=NNC4=CC=CC(=C43)C2=O
Outline: as §1

Measured: log2 fold change

TMEM106C (UniProt Q9BVX2)
inactive: [1] -0.257 | [2] 0.052 | [3] 0.026 | [4] 0.039 | [5] 0.035 | [6] -0.057 | [7] -0.018

TICAM1 (UniProt Q8IUC6)
inactive: [1] 0.172 | [2] -0.031 | [3] -0.137 | [8] -0.014 | [9] 0 | [6] 0.028 | [10] -0.027 | [11] 0.076 | [12] -0.049 | [7] -0.07 | [13] -0.023 | [14] 0.015 | [15] 0.055 | [16] 0.006 | [17] 0.042

TM7SF2 (UniProt O76062)
inactive: [15] -0.138

TMEM132A isoform 2 (UniProt Q24JP5)
inactive: [1] -0.031 | [2] -0.009 | [8] -0.064 | [4] 0.042 | [5] 0.068 | [9] 0.101 | [10] 0.676 | [11] 0.065 | [12] -0.194 | [7] 0.03 | [15] 0.05 | [16] 0.015 | [17] 0.019

TIFA (UniProt Q96CG3)
inactive: [1] 0.037 | [2] 0.004 | [8] 0.106 | [4] -0.028 | [5] 0.055 | [9] -0.058 | [11] -0.132 | [12] -0.134 | [7] -0.035 | [15] -0.073 | [16] 0.134

TMEM175 (UniProt Q9BSA9)
inactive: [1] 0.083 | [2] -0.098 | [3] 0.017 | [8] -0.062 | [9] 0.136 | [6] 0.082 | [11] -0.099 | [12] -0.002 | [7] 0.232 | [15] 0.113 | [16] 0.064

TMED3 (UniProt Q9Y3Q3)
inactive: [1] 0.05 | [2] -0.09 | [3] -0.011 | [8] -0.069 | [9] 0.113 | [6] -0.062 | [10] 0.03 | [11] 0.132 | [12] -0.047 | [7] -0.025 | [15] 0.027 | [16] -0.053 | [17] 0.12

TMEM104 (UniProt Q8NE00)
inactive: [18] -0.422 | [19] 0.11 | [3] 0.014 | [20] 0.108 | [6] 0.071 | [15] 0.064

THBS1 (UniProt P07996)
inactive: [18] -0.069 | [19] 0.018 | [20] -0.002 | [14] -0.078 | [15] 0.016

TMEM184B (UniProt Q9Y519)
inactive: [8] 0.021 | [9] -0.009 | [11] 0.046 | [12] -0.034 | [14] -0.058 | [15] -0.039 | [16] 0.023

TMCO3 (UniProt Q6UWJ1)
inactive: [18] -0.078 | [19] -0.105 | [3] -0.099 | [20] 0.056 | [4] -0.052 | [5] 0.087 | [6] 0.125 | [15] -0.002

TMEM101 (UniProt Q96IK0)
inactive: [1] -0.065 | [2] -0.011 | [3] 0.094 | [8] 0.004 | [4] -0.069 | [5] 0.123 | [9] -0.012 | [6] -0.07 | [10] 0.102 | [11] 0.034 | [12] -0.139 | [7] -0.042 | [13] 0.022 | [14] -0.011 | [15] 0.108 | [16] -0.02 | [17] -0.073

THOC2 (UniProt H0Y7U4)
inactive: [3] 0.038 | [8] 0.129 | [9] 0.011 | [6] 0.192 | [10] -0.03 | [11] -0.018 | [12] -0.048 | [14] 0.045 | [15] -0.081 | [16] -0.132 | [17] -0.061

TMEM147 (UniProt Q9BVK8)
inactive: [1] -0.111 | [2] -0.089 | [3] 0.004 | [8] -0.03 | [4] -0.042 | [5] -0.133 | [9] 0.042 | [6] -0.048 | [10] -0.07 | [11] -0.045 | [12] -0.053 | [7] 0.185 | [13] -0.012 | [15] -0.035 | [16] 0.008 | [17] 0.028

Reprinted at random: two records from the list, in no set order.
TMCO3 (UniProt Q6UWJ1)
inactive: [18] -0.078 | [19] -0.105 | [3] -0.099 | [20] 0.056 | [4] -0.052 | [5] 0.087 | [6] 0.125 | [15] -0.002

TMEM147 (UniProt Q9BVK8)
inactive: [1] -0.111 | [2] -0.089 | [3] 0.004 | [8] -0.03 | [4] -0.042 | [5] -0.133 | [9] 0.042 | [6] -0.048 | [10] -0.07 | [11] -0.045 | [12] -0.053 | [7] 0.185 | [13] -0.012 | [15] -0.035 | [16] 0.008 | [17] 0.028

The list continues:

TKT, A0A0B4J1R6
inactive: [1] -0.117 | [2] -0.095 | [8] -0.035 | [9] 0.118 | [10] -0.047 | [11] 0.107 | [12] -0.186 | [7] -0.073 | [13] -0.067 | [14] -0.045 | [15] -0.084 | [16] -0.109 | [17] -0.042

TMEM184C (UniProt Q9NVA4)
inactive: [1] 0.006 | [2] 0.059 | [3] 0.172 | [8] -0.05 | [4] 0.007 | [5] 0.057 | [9] 0.021 | [6] -0.052 | [10] 0.048 | [11] 0.015 | [12] 0.033 | [7] -0.031 | [13] -0.055 | [14] -0.04 | [15] 0.063 | [16] -0.037 | [17] 0.07

THAP9 (UniProt Q9H5L6)
inactive: [18] 0.019 | [19] -0.015 | [3] 0.01 | [8] 0.028 | [20] -0.042 | [4] -0.092 | [5] 0.098 | [9] 0.145 | [6] 0.038 | [10] -0.061 | [11] -0.168 | [12] -0.332 | [14] -0.199 | [15] 0.234 | [16] 0.017 | [17] -0.087

TM2D3 (UniProt Q9BRN9)
inactive: [1] 0.104 | [2] -0.083 | [3] -0.068 | [8] 0.205 | [4] 0.153 | [5] 0.088 | [9] 0.148 | [6] 0.02 | [11] -0.14 | [12] -0.157 | [7] -0.201 | [16] 0.07

THAP5 (UniProt Q7Z6K1)
inactive: [14] 0.031

TICRR (UniProt Q7Z2Z1)
inactive: [14] 0.049

TMEM102 (UniProt Q8N9M5)
inactive: [18] 0.067 | [19] -0.302 | [8] -0.086 | [20] 0.032 | [4] -0.016 | [5] -0.073 | [9] 0.101 | [11] 0.145 | [12] -0.062 | [13] -0.081 | [15] 0.125 | [16] 0.058

TMEM134 (UniProt Q9H6X4)
inactive: [1] 0.067 | [2] -0.042 | [8] 0.083 | [9] -0.064 | [10] 0.051 | [11] -0.019 | [12] -0.086 | [7] 0.036 | [14] -0.038 | [15] 0.068 | [16] 0.055 | [17] 0.097

TMEM159 isoform 2 (UniProt Q96B96)
inactive: [1] -0.036 | [2] -0.083 | [3] -0.042 | [8] -0.072 | [4] -0.134 | [5] -0.143 | [9] 0.022 | [6] -0.07 | [10] -0.01 | [11] 0.074 | [12] -0.017 | [7] 0.256 | [13] -0.03 | [14] 0.025 | [15] -0.002 | [16] -0.033 | [17] -0.074

TLNRD1 (UniProt Q9H1K6)
inactive: [3] -0.492 | [8] 0.072 | [9] 0.022 | [6] 0.181 | [10] -0.049 | [11] -0.031 | [12] 0.058 | [14] -0.182 | [15] 0.159 | [16] -0.011 | [17] 0.227

TGFBR2 isoform 2 (UniProt P37173)
inactive: [1] 0.101 | [2] -0.195 | [8] 0.026 | [4] -0.185 | [5] -0.06 | [9] 0.095 | [11] -0.163 | [12] -0.4 | [7] 0.075 | [14] 0.057 | [16] -0.466

TGM2 (UniProt A2A299)
inactive: [10] 0.06 | [13] -0.13 | [17] 0.037
